Assay results reported in patent publication US8476240B2, “Histidine related compounds for identifying and blocking amyloid beta ion channels” (priority 2008, dated 2013).
Some results were stated once for a whole list of compounds, not compound by compound. Residues, ends and D or L forms follow the SMILES beside them.

System: PC12 cells, cortical and hippocampal neurons
Settings: read-out: concentration required for 50% protection (EC50); three different types of cells, Aβ peptide 5 μM, three days
Protocol: Cell culture: PC 12 cells, derived from a transplantable rat pheochromocytoma (ATCC # CRL 1721), were cultured in the recommended ATCC medium. Primary cultures of hippocampal and cortical neurons from […] rat brains were grown in neurobasal medium/B27 (GIBCO). For neurons preparation, pregnant rats were anesthetized and killed to extract the fetuses. For pain alleviation, the animals were anesthetized following recommendations in the 2000 Report of the American Veterinary Medical Association Panel on Euthanasia. Brains from the fetuses were dissected out and neuronal cell cultures prepared as in a previously described protocol (Simakova and Arispe, 2006).
Cell viability assays: The percentage of cells protected from Aβ-induced cell death by various treatments was evaluated by means of a colorimetric XTT assay (Cell Proliferation Kit II, Roche, Mannheim, Germany). The cytotoxicity was also directly measured by the release of lactate dehydrogenase (LDH) from the cytosol into the media (Cytotoxicity Detection Kit (LDH), Roche, Mannheim, Germany).
Cell viability was examined using two different assays. These were the colorimetric XTT assay that quantifies metabolically active cells, and an assay that measures the release of lactate dehydrogenase (LDH) from the cytosol into the media, which evaluates the cell membrane integrity. […]

| SMILES | EC50 |
| --- | --- |
| CC(=O)N[C@@H](Cc1c[nH]cn1)C(=O)N[C@@H](Cc1c[nH]cn1)C(=O)N[C@@H](Cc1c[nH]cn1)C(=O)N[C@@H](Cc1c[nH]cn1)C(N)=O [NAHIS04, Ac-His-His-His-His-CONH2] (Ac-HHHH-NH2) | < 1000 nM |
| CC(=O)N[C@@H](Cc1c[nH]cn1)C(=O)N[C@@H](Cc1c[nH]cn1)C(N)=O [NAHIS02, Ac-His-His-CONH2] | < 1000 nM |
